Results are given in words; binding and its absence hold for the method and conditions named. Some entries that bind do so weakly or less than the wild type. One block for each binder: values may come before it.
Columns and labels:
纤溶酶-α2纤溶酶抑制剂复合物(PIC) [1] = target: 纤溶酶-α2纤溶酶抑制剂复合物(PIC) (UniProt P00747); test: summing-up of the examples
纤溶酶-α2纤溶酶抑制剂复合物(PIC) [2] = target: 纤溶酶-α2纤溶酶抑制剂复合物(PIC) (UniProt P00747); test: indirect ELISA of hybridoma supernatants on coated PIC

Amino acid sequences for entries named in this document (tags omitted). A change or cut given only in a name is not applied to a line headed by its entry.
UniProt P00747: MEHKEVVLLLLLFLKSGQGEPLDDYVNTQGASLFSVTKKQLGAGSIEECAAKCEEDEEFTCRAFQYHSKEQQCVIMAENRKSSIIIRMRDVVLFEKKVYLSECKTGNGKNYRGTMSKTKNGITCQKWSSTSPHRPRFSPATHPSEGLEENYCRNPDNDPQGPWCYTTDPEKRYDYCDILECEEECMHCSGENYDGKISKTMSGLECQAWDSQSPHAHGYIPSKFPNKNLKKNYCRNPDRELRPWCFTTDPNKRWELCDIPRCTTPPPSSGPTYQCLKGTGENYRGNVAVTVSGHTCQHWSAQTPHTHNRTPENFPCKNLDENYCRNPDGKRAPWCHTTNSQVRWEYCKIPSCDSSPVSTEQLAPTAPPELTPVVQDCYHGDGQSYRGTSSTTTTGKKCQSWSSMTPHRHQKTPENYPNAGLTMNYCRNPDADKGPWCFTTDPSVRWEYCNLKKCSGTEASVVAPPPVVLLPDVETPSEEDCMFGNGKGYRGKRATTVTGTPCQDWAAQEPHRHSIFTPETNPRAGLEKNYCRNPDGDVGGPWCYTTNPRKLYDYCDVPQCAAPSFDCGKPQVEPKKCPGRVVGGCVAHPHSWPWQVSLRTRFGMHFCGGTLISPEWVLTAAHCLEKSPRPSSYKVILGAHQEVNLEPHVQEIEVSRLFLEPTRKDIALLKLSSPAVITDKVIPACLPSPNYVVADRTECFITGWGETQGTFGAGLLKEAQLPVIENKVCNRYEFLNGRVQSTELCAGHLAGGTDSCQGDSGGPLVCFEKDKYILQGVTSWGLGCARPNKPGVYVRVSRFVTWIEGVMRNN

- binding (纤溶酶-α2纤溶酶抑制剂复合物(PIC) [1]): binds
- binding (纤溶酶-α2纤溶酶抑制剂复合物(PIC) [2]): binds
B1: PIC抗体(WT2) (antibody, mouse IgG1, kappa, V domains shown)
VH: QVQLQQPGAELVRPGASVKLSCKASGYTFTSSWMHWVKQRPEQGLEWIGYIDPYDSETHYNQKFKDKAILTVDKSSSTAYMQLSSLTSEDSAVYYCARGYDRSFDYWGQGTTLTVSS
VL: DIKMTQSPSSMFASLGERVTITCKASQDIKSFLNWYQQKPWRSPKTLIYYATSLADGVPSRFSGSGSGQDFSLTISSLESDDAATYYCLQHGESPFTFGGGTKLEIKR

- binding (纤溶酶-α2纤溶酶抑制剂复合物(PIC) [1]): binds
- binding (纤溶酶-α2纤溶酶抑制剂复合物(PIC) [2]): binds
B2: PIC抗体(WT1) (antibody, mouse IgG1, kappa, V domains shown)
VH: QVQLQQSGPELVKPGASVKLSCKASGNAFSSSWMNWVKQRPGQGLEWIGRIYPGDGDTNYNGKFKGKATLTVDKSSSTVYMQLSSLTSVDSAVYFCGRGNPTTAYAMDYWGQGTSVTVSS
VL: DIVLTQSPASLAVSLGQRATLSCRASESVDSFGYSFMHWYQQNPGQPPKLLIYRASNLESGIPARFSGSGSRTDFTLTINPVEADDVATYFCQQTNEDPYTFGGGAKLEIKR

Reference: patent CN117126283A
